Patent US20240050472A1
These are yes or no findings as the source states them, for the method shown. Some binding calls cover weakened binding; strength is not graded here.

Target: T1, human Claudin 18.2 (human) (UniProt P56856)
T1 sequence (looked up): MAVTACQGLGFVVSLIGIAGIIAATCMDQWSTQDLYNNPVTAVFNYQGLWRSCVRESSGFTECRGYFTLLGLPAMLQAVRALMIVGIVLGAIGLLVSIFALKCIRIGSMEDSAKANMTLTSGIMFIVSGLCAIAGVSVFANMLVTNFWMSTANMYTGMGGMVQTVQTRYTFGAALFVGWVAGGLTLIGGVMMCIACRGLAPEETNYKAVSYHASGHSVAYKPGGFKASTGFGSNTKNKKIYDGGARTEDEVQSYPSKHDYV
Assay: flow cytometry on cells expressing the target

B1: anti-Claudin 18.2 antibody 8D2 (antibody, V domains shown)
VH: QVQLKQSGPELVKPGASVKMSCKASGYTFTSYVMHWVKQKPGQGLEWIGYINPYNDGTKYNEKFKGKATLTSDKSSSTAYMELSSLTSEDSAVYYCARRGYYGPYFDYWGQGTTLTVSS
VL: DIVMTQSPSSLTVTAGEKVTMSCKSSQSLLNGGNQKNYLTWYQQKPGQPPKLLIYWASTRESGVPDRFTGSGSGTDFTLTISSVQAEDLAVYYCQNDYYYPYTFGGGTKLEIK
Q: How did the binding turn out when B1 was run?
A: binds
